Measurements as given in US20210238292A1 (VACCINEX, published 2021).
Substitutions are numbered along the chain they refer to. These are yes or no findings as the source states them, for the method shown. Some results given as binding are weak or reduced against the parent protein; the word gives no strength.

By UniProt entry, the sequences of proteins in these tests, tags left out. Where a name states a change or a piece, a line headed by the entry shows the natural chain unless it says otherwise. Chains listed by the source or under a name are the forms on record and can include a tag or linker. Residues count along the entry.
cynomolgus monkey CCR8 expressed on cells (G7NYJ2, form named): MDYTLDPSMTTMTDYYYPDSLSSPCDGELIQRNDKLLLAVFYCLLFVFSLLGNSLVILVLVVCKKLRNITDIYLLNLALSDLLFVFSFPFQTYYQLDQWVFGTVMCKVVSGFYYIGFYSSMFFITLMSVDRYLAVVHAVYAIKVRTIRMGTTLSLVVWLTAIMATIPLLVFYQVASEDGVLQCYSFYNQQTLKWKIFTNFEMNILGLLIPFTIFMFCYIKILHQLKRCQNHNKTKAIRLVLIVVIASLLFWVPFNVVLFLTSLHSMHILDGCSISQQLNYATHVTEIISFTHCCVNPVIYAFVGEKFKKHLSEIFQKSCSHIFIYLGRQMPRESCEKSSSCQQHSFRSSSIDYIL
UniProt Q06481, residues 32-763: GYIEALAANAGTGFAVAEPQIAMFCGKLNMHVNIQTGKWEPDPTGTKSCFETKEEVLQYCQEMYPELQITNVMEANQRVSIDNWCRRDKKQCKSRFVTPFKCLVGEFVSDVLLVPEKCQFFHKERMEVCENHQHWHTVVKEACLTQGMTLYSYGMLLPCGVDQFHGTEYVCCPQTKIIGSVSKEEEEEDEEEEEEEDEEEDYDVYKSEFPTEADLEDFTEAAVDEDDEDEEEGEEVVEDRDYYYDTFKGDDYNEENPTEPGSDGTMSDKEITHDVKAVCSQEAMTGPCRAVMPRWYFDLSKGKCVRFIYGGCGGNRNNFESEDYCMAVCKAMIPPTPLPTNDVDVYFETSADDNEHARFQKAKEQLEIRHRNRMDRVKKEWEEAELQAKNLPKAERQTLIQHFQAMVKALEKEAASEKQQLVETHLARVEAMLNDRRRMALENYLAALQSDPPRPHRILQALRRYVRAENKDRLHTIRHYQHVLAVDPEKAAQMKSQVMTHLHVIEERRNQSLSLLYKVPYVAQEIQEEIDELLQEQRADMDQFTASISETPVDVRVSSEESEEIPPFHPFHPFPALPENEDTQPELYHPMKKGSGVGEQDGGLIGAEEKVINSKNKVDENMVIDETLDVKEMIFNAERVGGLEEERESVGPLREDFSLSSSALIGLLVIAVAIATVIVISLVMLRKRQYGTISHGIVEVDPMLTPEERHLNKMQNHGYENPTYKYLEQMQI

Experiments:
[1] = target: cynomolgus monkey CCR8 expressed on cells (cynomolgus monkey) (UniProt G7NYJ2); assay: flow cytometry on 293T transfectants
[2] = target: cynomolgus monkey CCR8 expressed on cells (cynomolgus monkey) (UniProt G7NYJ2); assay: flow cytometry, CynoCCR8-293T cells, fold geomean over secondary alone
[3] = target: amyloid precursor-like protein 2 (APLP2) (UniProt Q06481); assay: Retrogenix screen on cells forced to express about 4,500 cell surface proteins
[4] = target: amyloid precursor-like protein 2 (APLP2) (UniProt Q06481); assay: on-cell Kd, antibody titration on cells expressing APLP2, flow cytometry
[5] = target: cynomolgus monkey CCR8 expressed on cells (cynomolgus monkey) (UniProt G7NYJ2); assay: on-cell Kd, antibody titration on cells expressing cyno CCR8, flow cytometry
[6] = target: cynomolgus monkey CCR8 expressed on cells (cynomolgus monkey) (UniProt G7NYJ2); assay: flow cytometry, dose titration on cells infected with cynomolgus monkey CCR8 lentivirus
Human CCR8-ECD-Fc = target: T1, Human CCR8-ECD-Fc (human); assay: binding to HuCCR8-ECD-Fc protein, graded
T1 construct: also called HuCCR8-ECD-Fc; huCC8-ECD-Fc
T1 chain: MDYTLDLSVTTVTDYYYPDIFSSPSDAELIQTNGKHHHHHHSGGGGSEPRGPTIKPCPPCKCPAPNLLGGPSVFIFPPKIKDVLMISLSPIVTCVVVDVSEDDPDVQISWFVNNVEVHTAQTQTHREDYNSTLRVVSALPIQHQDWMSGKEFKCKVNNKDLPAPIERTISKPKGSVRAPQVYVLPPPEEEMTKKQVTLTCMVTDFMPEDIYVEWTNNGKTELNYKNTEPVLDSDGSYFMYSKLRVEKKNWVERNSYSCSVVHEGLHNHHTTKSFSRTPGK

[7] = target: cynomolgus monkey CCR8 expressed on cells (cynomolgus monkey) (UniProt G7NYJ2); assay: flow cytometry, cynoCCR8-293T cells, fold geomean over secondary alone
[8] = target: cynomolgus monkey CCR8 expressed on cells (cynomolgus monkey) (UniProt G7NYJ2); assay: flow cytometry, CyCCR8-293T cells, fold geomean over secondary alone

B1: anti-CCR8-2 (antibody, V domains shown)
VH: EVQLLESGGGLVQPGGSLRLSCAAGGFTFSAYTMNWVRQAPGKGLEWVSAISASGGRTYYADSVKGRFTISRDNSKNTLYLQMNSLRAEDTAVYYCARRFARGWFDPWGQGTLVTVSS
VL: QSVLTQPPSVSAAPGQKVTISCSGSSSNIGNNYVSWYQQLPGTAPKLLIYDNNKRPSGIPDRFSGSKSGTSATLGITGLQTGDEADYYCGTWDSSLSAWVFGGGTKLT
notes: Cloned into mammalian expression vectors; human IgG; also called heavy chain H23727
binding [1]: binds
binding [2]: binds
binding [3]: binds
binding [4]: binds
binding [5]: binds
binding [6]: binds

B2: anti-CCR8-2-1 (antibody, V domains shown)
VH: B1 VH with G25R, T28I, A31G, N35L, S52T
VL: B1 VL
notes: Human IgG from a mammalian expression vector
binding [1]: binds
binding [2]: binds

B3: anti-CCR8-parental-1 (antibody, V domains shown)
VH: QVQLVQSGAEVKKPGASVKVSCKASGYTFTSYYMHWVRQAPGQGLEWMGIINPSGGSTSYAQKFQGRVTMTRDTSTSTVYMELSSLRSEDTAVYYCARGVGNGFRFDYWGQGTLVT
VL: QSALTQPASVSGSPGQSITISCTGTSSDVGSYNLVSWYQQHPGKAPKLMIYEVSKRPSGVSNRFSGSKSGNTASLTISGLQAEDEADYYCSSYAGSSTFVVFGGGTKLTVL
notes: Full-length human IgG; also called parental antibody; H23188/L1037
binding (Human CCR8-ECD-Fc): binds

B4: anti-CCR8-1-1 (antibody, V domains shown)
VH: B3 VH
VL: B3 VL with A8P, S31T, K44N, S54T, S74T, Y89H, S97I, F99H
notes: Parental-1 heavy chain with a shuffled lambda light chain; Expressed from a mammalian expression vector in CHO cells as human IgG
binding [7]: binds

B5: anti-CCR8-1-4 (antibody, V domains shown)
VH: B3 VH
VL: QSALTQPASVSGSPGQSITISCSGTSSNIGKYNLVSWYQQHPGEAPTLLIYEATKRPSGVSNRFSGSKSGNTASLTISGLQAEDEADYICSSYAGSRVFVVFGGGTKLTVL
notes: Parental-1 heavy chain with a shuffled lambda light chain; Human IgG expressed in CHO cells
binding [7]: binds

B6: anti-CCR8-1-5 (antibody, V domains shown)
VH: B3 VH
VL: B3 VL with A8P, T23S, H41E, M49I, S54N, Y89H, F99Y
notes: as for B5
binding [7]: binds

B7: anti-CCR8-2-2 (antibody, V domains shown)
VH: EVQLLESGGGLVQPGGSLRLSCAAGGFTFSAYTMNWVRQAPGKGLEWVSAISASGGRTYYADSVKGRFTISRDNSKNTLYLQMNSLRAEDTAVYYCARRFARGWFDPWGQGTLVT
VL: QSVLTQPPSVSAAPGQRVTISCSGSTSNIGNHYVSWYQQLPRAVPKLVIYDNDKRPSGISDRFSGSRSGTSATLDISGLQAGDEADYYCATWDYSLTAVVFGGGTKLTVL
notes: Heavy chain of anti-CCR8-2 (H23727) cross-paired with a shuffled lambda light chain; Human IgG
binding [2]: binds

B8: anti-CCR8-2-3 (antibody, V domains shown)
VH: EVQLVESGGGLVQPGRSLRLSCAASGFTFDDYAMHWVRQAPGKGLEWVSGISWNSGSIGYADSVKGRFTISRDNSKNSLYLQMNSLRAEDTALYYCARGRKSYRDSLRFDYWGQGTLVTVSS
VL: B1 VL
notes: Human IgG from a mammalian expression vector in CHO cells; also called heavy chain H23499
binding [1]: binds
binding [8]: binds

B9: anti-CCR8-2-6 (antibody, V domains shown)
VH: EVQLVESGGGLVQPGRSLRLSCAASGFTFDDYAMHWVRQAPGKGLEWVSGISWNSGSIGYADSVKGRFTISRDNSKNSLYLQMNSLRAEDTALYYCARGRVSYRESLRFDYWGQGTLVT
VL: B1 VL
notes: Human IgG
binding [1]: binds
binding [2]: binds

B10: anti-CCR8-2-8 (antibody, V domains shown)
VH: B8 VH with K101R
VL: QSVLTQPPSVSGAPGQRVTISCTGSGSNIGNNYVSWYQQLPGTAPKMLIYDNTRRPSGIPDRFSGSKSDTSATLGITGLQTGDEADYYCGAWDSSLRMWVFGGGTKLTVL
notes: Human IgG
binding [1]: binds
binding [8]: binds

B11: anti-CCR8-2-7 (antibody, V domains shown)
VH: B8 VH with K101D, D105K
VL: B10 VL
notes: Human IgG
binding [1]: binds
binding [8]: binds

B12: anti-CCR8-2-9 (antibody, V domains shown)
VH: B8 VH
VL: B10 VL
notes: Human IgG
binding [1]: binds
binding [8]: binds

B13: anti-CCR8-2-10 (antibody, V domains shown)
VH: B8 VH
VL: QSVLTQPPSVSAAPGQKVTISCSGTSSNIGKNFVSWYQQLPGTAPKLLIYDDNKRPSGIPDRFSGSKSATSATLGITGLQTGDGADYYCGTWDSSLSAWVFGGGTKLTVL
notes: Human IgG
binding [1]: binds
binding [8]: binds
